Data reported in US9771430B2, “Method of treating a metabolic disorder induced by obesity in a subject in need thereof by administering MK2/3 inhibitors” (THE TRUSTEES OF COLUMBIA UNIVERSITY IN THE CITY OF NEW YORK, priority 2011, dated 2017).
At least one structure is not confirmed: it was looked up by name or label, or the drawing left a doubt.

System: IP3R
Assay: IP3R activity in FAO hepatocytes (Inositol/ATP-induced calcium release assay)
Format: cell-based, rat
Source text: FIGS. 49A-S. The role of IP3R in forskolin/glucagon-induced G6Pase/PEPCK in cultured hepatocytes and in fasting blood glucose in vivo. FIG. 49 A,B. FSK-Induced G6Pase and PEPCK is Calcium-Dependent. FIG. 49C-D. IP3R Activity is Required for Forskolin- and Glucagon-Induced G6Pase and PEPCK (FAO rat hepatocyte cell line). FIG. 49E-F. IP3R Activity is Required for Forskolin-Induced G6Pase and PEPCK (primary murine hepatocytes). FIG. 49G-H. IP3R1 Anti-Sense Oligonucleotide Suppresses Forskolin-Induced G6Pase and PEPCK (primary murine hepatocytes). FIG. 49I. Forskolin Activates IP3R Activity in FAO Hepatocytes (Inositol/ATP-Induced Calcium Release Assay). FIG. 49J. The PKA Inhibitor H89 Suppresses Forskolin-Induced IP3R Activation. FIG. 49K-L. IP3R Activity is Required for Forskolin-Induced PGC1a. FIG. 49M-N. Calcineurin Inhibitory Peptide Suppresses Forskolin-Induced G6Pase and PEPCK. FIG. 49O. IP3R Activity is Required for Forskolin-Induced Calcineurin Activation. FIG. 49P-Q. IP3R Activity is Required for Forskolin-Induced TORC2 Dephosphorylation and Nuclear Localization. FIG. 49R. TORC2 Transduction Partially Restores Forskolin-Induced G6Pase in IP3R-Inhibited Hepatocytes. FIG. 49S. Xestospongin C Treatment Reduces Fasting Glucose Levels in C57BL/6J Mice.

In the case of C=C[C@@]1(C)CC(=O)[C@]2(O)[C@@]3(C)[C@@H](O)CCC(C)(C)[C@@H]3[C@H](O)[C@H](OC(C)=O)[C@@]2(C)O1 [forskolin], the “IP3R Activity” value is reported as “Activates”.
